Binding data for five molecules are collected here from paper PMC11003095.

Protein sequences, listed by entry. Tags and fused reporters are not part of them. Residues count along the entry.
UniProt P35968, residues 20-1356: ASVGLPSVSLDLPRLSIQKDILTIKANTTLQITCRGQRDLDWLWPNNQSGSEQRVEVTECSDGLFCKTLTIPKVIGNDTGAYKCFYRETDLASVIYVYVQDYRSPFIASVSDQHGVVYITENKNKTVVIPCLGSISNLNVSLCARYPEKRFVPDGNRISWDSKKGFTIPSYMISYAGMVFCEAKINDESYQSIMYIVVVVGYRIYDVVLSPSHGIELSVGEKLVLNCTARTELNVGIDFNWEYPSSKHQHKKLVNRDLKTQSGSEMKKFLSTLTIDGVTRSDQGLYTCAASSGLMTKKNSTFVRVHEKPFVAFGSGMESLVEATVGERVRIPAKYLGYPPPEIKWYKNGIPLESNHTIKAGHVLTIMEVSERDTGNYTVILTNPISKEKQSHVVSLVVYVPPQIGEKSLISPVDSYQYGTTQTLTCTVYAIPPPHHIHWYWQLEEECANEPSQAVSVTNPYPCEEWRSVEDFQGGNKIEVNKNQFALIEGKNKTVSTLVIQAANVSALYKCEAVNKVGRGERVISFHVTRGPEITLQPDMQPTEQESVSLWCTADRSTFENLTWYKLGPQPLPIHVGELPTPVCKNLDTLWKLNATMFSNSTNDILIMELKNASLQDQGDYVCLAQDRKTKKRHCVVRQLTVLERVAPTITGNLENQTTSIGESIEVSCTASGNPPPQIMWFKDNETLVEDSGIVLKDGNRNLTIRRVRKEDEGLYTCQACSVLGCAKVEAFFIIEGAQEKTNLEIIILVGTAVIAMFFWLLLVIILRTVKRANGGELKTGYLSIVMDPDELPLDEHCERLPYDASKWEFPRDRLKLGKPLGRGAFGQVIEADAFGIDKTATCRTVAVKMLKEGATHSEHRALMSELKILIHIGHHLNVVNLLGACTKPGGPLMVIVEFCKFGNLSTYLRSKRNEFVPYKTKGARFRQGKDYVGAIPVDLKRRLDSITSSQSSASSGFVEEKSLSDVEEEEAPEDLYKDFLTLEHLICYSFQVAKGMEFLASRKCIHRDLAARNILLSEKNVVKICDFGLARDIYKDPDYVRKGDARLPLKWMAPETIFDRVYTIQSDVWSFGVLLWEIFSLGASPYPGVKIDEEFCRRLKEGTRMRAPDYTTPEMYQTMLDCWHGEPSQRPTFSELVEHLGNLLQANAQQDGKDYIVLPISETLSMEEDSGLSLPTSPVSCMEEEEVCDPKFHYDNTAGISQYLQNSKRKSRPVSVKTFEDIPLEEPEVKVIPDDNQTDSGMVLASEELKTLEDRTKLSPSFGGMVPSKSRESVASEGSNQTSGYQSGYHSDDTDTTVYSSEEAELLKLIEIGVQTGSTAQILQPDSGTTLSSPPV

Holding throughout (test): affinity purification with mass spectrometry; same immunoprecipitations from ASB-14 placental membrane extracts; eluates run on 4-12% Bis-Tris gels, strips from 25-220 kDa digested with Trypsin/Lys-C, LC-MS/MS, MaxQuant, 1% FDR
Assay [1] deals with Vascular endothelial growth factor receptor 2 (human (endogenous in placenta)) (UniProt P35968).
In assay [2] the target is T1, Double minute 4 protein (human (endogenous in placenta)) (UniProt O15151).
T1 sequence: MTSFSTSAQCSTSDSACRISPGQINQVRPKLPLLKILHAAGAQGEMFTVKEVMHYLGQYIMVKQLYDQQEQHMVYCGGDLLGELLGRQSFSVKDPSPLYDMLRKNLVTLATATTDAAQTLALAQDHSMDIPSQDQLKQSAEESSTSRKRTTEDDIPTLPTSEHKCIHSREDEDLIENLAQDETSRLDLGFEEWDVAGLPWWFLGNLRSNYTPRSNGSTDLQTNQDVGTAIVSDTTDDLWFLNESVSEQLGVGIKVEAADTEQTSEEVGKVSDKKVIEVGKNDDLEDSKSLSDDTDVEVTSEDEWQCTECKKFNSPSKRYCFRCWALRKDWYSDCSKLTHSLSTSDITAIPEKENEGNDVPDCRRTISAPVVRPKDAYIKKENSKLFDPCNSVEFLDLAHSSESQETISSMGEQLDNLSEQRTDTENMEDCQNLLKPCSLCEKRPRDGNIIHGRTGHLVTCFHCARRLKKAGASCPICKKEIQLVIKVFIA

Assay [3] addresses T2, Phosphatidylinositol-binding clathrin assembly protein (human (endogenous in placenta)) (UniProt Q13492).
T2 sequence: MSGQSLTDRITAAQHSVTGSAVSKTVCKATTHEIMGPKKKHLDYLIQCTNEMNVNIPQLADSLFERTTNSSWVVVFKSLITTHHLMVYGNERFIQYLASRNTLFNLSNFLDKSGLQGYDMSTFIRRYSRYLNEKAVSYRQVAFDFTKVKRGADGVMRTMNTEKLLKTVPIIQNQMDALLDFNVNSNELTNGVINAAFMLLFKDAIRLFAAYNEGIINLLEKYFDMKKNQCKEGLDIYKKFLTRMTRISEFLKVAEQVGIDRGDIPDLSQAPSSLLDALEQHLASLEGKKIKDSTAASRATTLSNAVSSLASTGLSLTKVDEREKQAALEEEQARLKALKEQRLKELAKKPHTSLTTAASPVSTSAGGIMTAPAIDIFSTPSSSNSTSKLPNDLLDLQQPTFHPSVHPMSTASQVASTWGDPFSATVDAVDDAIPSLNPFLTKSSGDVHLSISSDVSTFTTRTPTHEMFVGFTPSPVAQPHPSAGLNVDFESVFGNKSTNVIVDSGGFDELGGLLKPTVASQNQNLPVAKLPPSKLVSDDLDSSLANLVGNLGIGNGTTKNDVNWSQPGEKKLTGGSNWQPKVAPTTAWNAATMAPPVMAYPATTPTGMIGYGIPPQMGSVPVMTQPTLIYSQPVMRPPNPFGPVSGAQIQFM

No constants are given. Whether binding was seen depends on the method and setting. Binding seen in cells or lysates may run through a third protein. Here binding means that the protein was enriched with, or labelled near, the bait; the list need not be complete.

“Immunoglobulin heavy constant alpha 1 (from UniProt P01876-1)”: the binding entry in assay [1] is “binds”.

B1: arginase-1 (enzyme, UniProt P05089 1-322)
chain: MSAKSRTIGIIGAPFSKGQPRGGVEEGPTVLRKAGLLEKLKEQECDVKDYGDLPFADIPNDSPFQIVKNPRSVGKASEQLAGKVAEVKKNGRISLVLGGDHSLAIGSISGHARVHPDLGVIWVDAHTDINTPLTTTSGNLHGQPVSFLLKELKGKIPDVPGFSWVTPCISAKDIVYIGLRDVDPGEHYILKTLGIKYFSMTEVDRLGIGKVMEETLSYLLGRKKRPIHLSFDVDGLDPSFTPATGTPVVGGLTYREGLYITEEIYKTGLLSGLDIMEVNPSLGKTPEEVTRTVNTAVAITLACFGLAREGNHKPIDYLNPPK
Consider B1, for which the binding result in assay [2] was “binds”.

B2: Phosphatidylinositol-binding clathrin assembly protein (protein, UniProt Q13492 1-652)
chain: T2 sequence
For B2, in assay [2], the binding entry is “binds”.

B3: Protein-glutamine gamma-glutamyltransferase 2 (enzyme, UniProt P21980 1-687)
chain: MAEELVLERCDLELETNGRDHHTADLCREKLVVRRGQPFWLTLHFEGRNYEASVDSLTFSVVTGPAPSQEAGTKARFPLRDAVEEGDWTATVVDQQDCTLSLQLTTPANAPIGLYRLSLEASTGYQGSSFVLGHFILLFNAWCPADAVYLDSEEERQEYVLTQQGFIYQGSAKFIKNIPWNFGQFEDGILDICLILLDVNPKFLKNAGRDCSRRSSPVYVGRVVSGMVNCNDDQGVLLGRWDNNYGDGVSPMSWIGSVDILRRWKNHGCQRVKYGQCWVFAAVACTVLRCLGIPTRVVTNYNSAHDQNSNLLIEYFRNEFGEIQGDKSEMIWNFHCWVESWMTRPDLQPGYEGWQALDPTPQEKSEGTYCCGPVPVRAIKEGDLSTKYDAPFVFAEVNADVVDWIQQDDGSVHKSINRSLIVGLKISTKSVGRDEREDITHTYKYPEGSSEEREAFTRANHLNKLAEKEETGMAMRIRVGQSMNMGSDFDVFAHITNNTAEEYVCRLLLCARTVSYNGILGPECGTKYLLNLNLEPFSEKSVPLCILYEKYRDCLTESNLIKVRALLVEPVINSYLLAERDLYLENPEIKIRILGEPKQKRKLVAEVSLQNPLPVALEGCTFTVEGAGLTEEQKTVEIPDPVEAGEEVKVRMDLLPLHMGLHKLVVNFESDKLKAVKGFRNVIIGPA
B3: the binding result in assay [2] and in assay [3] was “binds” each time.

B4: PDC-E2, the E2 component of pyruvate dehydrogenase (enzyme, UniProt P10515 87-647)
chain: SLPPHQKVPLPSLSPTMQAGTIARWEKKEGDKINEGDLIAEVETDKATVGFESLEECYMAKILVAEGTRDVPIGAIICITVGKPEDIEAFKNYTLDSSAAPTPQAAPAPTPAATASPPTPSAQAPGSSYPPHMQVLLPALSPTMTMGTVQRWEKKVGEKLSEGDLLAEIETDKATIGFEVQEEGYLAKILVPEGTRDVPLGTPLCIIVEKEADISAFADYRPTEVTDLKPQVPPPTPPPVAAVPPTPQPLAPTPSAPCPATPAGPKGRVFVSPLAKKLAVEKGIDLTQVKGTGPDGRITKKDIDSFVPSKVAPAPAAVVPPTGPGMAPVPTGVFTDIPISNIRRVIAQRLMQSKQTIPHYYLSIDVNMGEVLLVRKELNKILEGRSKISVNDFIIKASALACLKVPEANSSWMDTVIRQNHVVDVSVAVSTPAGLITPIVFNAHIKGVETIANDVVSLATKAREGKLQPHEFQGGTFTISNLGMFGIKNFSAIINPPQACILAIGASEDKLVPADNEKGFDVASMMSVTLSCDHRVVDGAVGAQWLAEFRKYLEKPITMLL
With B4, the binding entry in assay [1] is “binds”.
